## Cleaved PARP after 72 h of treatment

Data from the primary screen of doi:10.1371/journal.pone.0140310, rounded.

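Human melanoma cell lines in 1,536-well plates were treated with a pair of drugs for 72 h, then fixed, stained and imaged. The read-out is the fraction of cleaved-PARP-positive nuclei, in % of that fraction in the DMSO control; 200 means twice the control level of this apoptosis marker. Concentrations were fixed for each drug; these are the higher of two levels. No replicate spread is given; individual values may be noisy. Basal and induced levels differ widely between cell lines.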
Only some of the drugs and lines screened are listed, without regard to their results.
A dash means that no value is listed here.

First drug in all entries: FK866, 0.05 µM, O=C(/C=C/c1cccnc1)NCCCCC1CCN(C(=O)c2ccccc2)CC1

Drug key:
PF-562271: CN(c1ncccc1CNc1nc(Nc2ccc3c(c2)CC(=O)N3)ncc1C(F)(F)F)S(C)(=O)=O at 0.4 µM
KU-0063794: COc1ccc(-c2ccc3c(N4CCOCC4)nc(N4C[C@@H](C)O[C@@H](C)C4)nc3n2)cc1CO at 0.1 µM
BMS-536924: Cc1cc(N2CCOCC2)cc2[nH]c(-c3c(NC[C@@H](O)c4cccc(Cl)c4)cc[nH]c3=O)nc12 at 1 µM
tozasertib: Cc1cc(Nc2cc(N3CCN(C)CC3)nc(Sc3ccc(NC(=O)C4CC4)cc3)n2)n[nH]1 at 0.03 µM
LFM-A13: C/C(O)=C(\C#N)C(=O)Nc1cc(Br)ccc1Br at 10 µM
SNS-032: CC(C)(C)c1cnc(CSc2cnc(NC(=O)C3CCNCC3)s2)o1 at 0.05 µM
selumetinib: Cn1cnc2c(F)c(Nc3ccc(Br)cc3Cl)c(C(=O)NOCCO)cc21 at 0.075 µM
FH535: Cc1cc([N+](=O)[O-])ccc1NS(=O)(=O)c1cc(Cl)ccc1Cl at 5 µM
AZD7762: NC(=O)Nc1cc(-c2cccc(F)c2)sc1C(=O)N[C@H]1CCCNC1 at 0.1 µM
vincristine: CC[C@]1(O)C[C@H]2CN(CCc3c([nH]c4ccccc34)[C@@](C(=O)OC)(c3cc4c(cc3OC)N(C=O)[C@H]3[C@@](O)(C(=O)OC)[C@H](OC(C)=O)[C@]5(CC)C=CCN6CC[C@]43[C@@H]65)C2)C1 at 0.0005 µM
OSU-03012: NCC(=O)Nc1ccc(-n2nc(C(F)(F)F)cc2-c2ccc3c(ccc4ccccc43)c2)cc1 at 5 µM
nutlin-3: COc1ccc(C2=N[C@@H](c3ccc(Cl)cc3)[C@@H](c3ccc(Cl)cc3)N2C(=O)N2CCNC(=O)C2)c(OC(C)C)c1 at 0.5 µM
STA-4783: CN(NC(=O)CC(=O)NN(C)C(=S)c1ccccc1)C(=S)c1ccccc1 at 0.03 µM
bexarotene: C=C(c1ccc(C(=O)O)cc1)c1cc2c(cc1C)C(C)(C)CCC2(C)C at 10 µM
midostaurin: CO[C@@H]1[C@H](N(C)C(=O)c2ccccc2)C[C@H]2O[C@]1(C)n1c3ccccc3c3c4c(c5c6ccccc6n2c5c31)C(=O)NC4 at 0.4 µM
decitabine: Nc1ncn([C@H]2C[C@H](O)[C@@H](CO)O2)c(=O)n1 at 0.5 µM
VX-702: NC(=O)c1ccc(N(C(N)=O)c2c(F)cccc2F)nc1-c1ccc(F)cc1F at 2 µM
PLX4720: CCCS(=O)(=O)Nc1ccc(F)c(C(=O)c2c[nH]c3ncc(Cl)cc23)c1F at 0.4 µM
GW441756: Cn1cc(/C=C2\C(=O)Nc3cccnc32)c2ccccc21 at 2 µM
erlotinib: C#Cc1cccc(Nc2ncnc3cc(OCCOC)c(OCCOC)cc23)c1 at 4 µM
GW0742: Cc1cc(SCc2sc(-c3ccc(C(F)(F)F)c(F)c3)nc2C)ccc1OCC(=O)O at 10 µM
ENMD-2076: Cc1cc(Nc2cc(N3CCN(C)CC3)nc(/C=C/c3ccccc3)n2)n[nH]1 at 0.2 µM
vismodegib: CS(=O)(=O)c1ccc(C(=O)Nc2ccc(Cl)c(-c3ccccn3)c2)c(Cl)c1 at 5 µM
cisplatin: N.N.[Cl][Pt][Cl] at 8 µM
PD173074: CCN(CC)CCCCNc1ncc2cc(-c3cc(OC)cc(OC)c3)c(NC(=O)NC(C)(C)C)nc2n1 at 0.5 µM
ZM336372: Cc1ccc(NC(=O)c2cccc(N(C)C)c2)cc1NC(=O)c1ccc(O)cc1 at 10 µM
XAV939: Oc1nc(-c2ccc(C(F)(F)F)cc2)nc2c1CSCC2 at 10 µM
BI-78D3: O=c1[nH]nc(Sc2ncc([N+](=O)[O-])s2)n1-c1ccc2c(c1)OCCO2 at 1 µM
lapatinib: CS(=O)(=O)CCNCc1ccc(-c2ccc3ncnc(Nc4ccc(OCc5cccc(F)c5)c(Cl)c4)c3c2)o1 at 4 µM
vorinostat: O=C(CCCCCCC(=O)Nc1ccccc1)NO at 0.4 µM
crizotinib: C[C@@H](Oc1cc(-c2cnn(C3CCNCC3)c2)cnc1N)c1c(Cl)ccc(F)c1Cl at 1 µM
dasatinib: Cc1nc(Nc2ncc(C(=O)Nc3c(C)cccc3Cl)s2)cc(N2CCN(CCO)CC2)n1 at 0.02 µM
MK-2206: NC1(c2ccc(-c3nc4ccn5c(=O)[nH]nc5c4cc3-c3ccccc3)cc2)CCC1 at 2 µM
JZL184: O=C(Oc1ccc([N+](=O)[O-])cc1)N1CCC(C(O)(c2ccc3c(c2)OCO3)c2ccc3c(c2)OCO3)CC1 at 5 µM
CP-690550: C[C@@H]1CCN(C(=O)CC#N)C[C@@H]1N(C)c1ncnc2[nH]ccc12 at 5 µM
vatalanib: Clc1ccc(Nc2nnc(Cc3ccncc3)c3ccccc23)cc1 at 10 µM

| # | Second drug | A375 | C32 | WM1716 | COLO 829 | WM3619 | MeWo | MZ2-MEL | SK-MEL-5 | RPMI-7951 | WM115 |
|---|---|---|---|---|---|---|---|---|---|---|---|
| 1 | vatalanib | 50.4 | 286 | 104 | 405 | 134 | 180 | 2480 | 257 | 166 | 131 |
| 2 | ENMD-2076 | 169 | 438 | 88.6 | 446 | 151 | 127 | 1630 | 373 | 153 | 243 |
| 3 | erlotinib | 74.9 | 55.7 | 15.1 | 293 | 126 | 185 | - | 195 | 342 | 227 |
| 4 | MK-2206 | 63.6 | 595 | 175 | 464 | 105 | 36.6 | 451 | 147 | 126 | 101 |
| 5 | selumetinib | 176 | 152 | 172 | 584 | 191 | 108 | 276 | 103 | 131 | 282 |
| 6 | BMS-536924 | - | 169 | 118 | 1220 | 88.2 | 134 | 328 | 59.4 | 73.9 | 52.9 |
| 7 | lapatinib | 114 | 152 | 142 | 746 | 128 | 225 | 1700 | 379 | 217 | 211 |
| 8 | FH535 | 114 | 72.0 | 26.2 | 638 | 124 | 125 | 668 | 183 | 86.1 | 116 |
| 9 | JZL184 | 63.0 | 86.6 | 71.6 | 316 | 107 | 123 | 853 | 99.7 | 178 | 98.9 |
| 10 | VX-702 | 66.6 | 205 | 11.8 | 698 | 116 | 124 | 831 | 111 | 113 | 136 |
| 11 | SNS-032 | - | 125 | 83.1 | 615 | 121 | 188 | 2350 | 69.5 | 154 | 66.3 |
| 12 | KU-0063794 | 144 | 101 | 158 | 256 | 114 | 58.4 | 1480 | 222 | 128 | 118 |
| 13 | GW441756 | 42.5 | 78.3 | 53.3 | 243 | 111 | 85.7 | 793 | 58.7 | 134 | 97.4 |
| 14 | bexarotene | 73.2 | 351 | 101 | 338 | 111 | 82.8 | 1630 | 85.6 | 31.7 | 28.5 |
| 15 | PLX4720 | 82.5 | 135 | 201 | 219 | 122 | 189 | 3200 | 192 | 69.0 | 171 |
| 16 | CP-690550 | - | 105 | 102 | 530 | 138 | 117 | 718 | 96.8 | 61.6 | 258 |
| 17 | BI-78D3 | 25.0 | 45.3 | 19.2 | 411 | 114 | 125 | 383 | 69.5 | 102 | 221 |
| 18 | XAV939 | 51.0 | 72.7 | 93.3 | 243 | 140 | 85.3 | 252 | 31.3 | 399 | 56.9 |
| 19 | dasatinib | 34.0 | 909 | 429 | 1720 | 271 | 138 | 4560 | 37.1 | 281 | 651 |
| 20 | GW0742 | 17.6 | 74.4 | 145 | 366 | 81.9 | 90.5 | 503 | 38.4 | 60.2 | 110 |
| 21 | vorinostat | - | 231 | 43.6 | 71.0 | 112 | 164 | 1270 | 79.9 | 198 | 233 |
| 22 | tozasertib | 90.2 | 36.1 | 113 | 644 | 136 | 309 | 461 | 47.5 | 40.9 | 362 |
| 23 | nutlin-3 | 88.7 | 122 | 68.8 | 284 | 112 | 51.5 | 510 | 85.2 | 18.8 | 286 |
| 24 | OSU-03012 | - | 47.1 | 61.4 | 671 | 157 | 154 | - | 160 | 60.0 | 66.4 |
| 25 | AZD7762 | - | 461 | 255 | 507 | 517 | 262 | 1450 | 170 | 380 | 90.7 |
| 26 | STA-4783 | - | 2630 | 319 | 356 | 1080 | 1200 | 303 | 105 | 121 | 867 |
| 27 | midostaurin | - | 407 | 114 | 780 | 183 | 142 | 3260 | 195 | 120 | 327 |
| 28 | cisplatin | 425 | 105 | 1100 | 1270 | 95.8 | 107 | 6640 | 57.6 | 138 | 140 |
| 29 | decitabine | 68.1 | 84.9 | 162 | 524 | 133 | 213 | 2650 | 99.8 | 151 | 205 |
| 30 | crizotinib | 98.0 | 104 | 149 | 349 | 117 | 115 | 654 | 106 | 113 | 70.6 |
| 31 | LFM-A13 | 119 | 76.8 | 67.9 | 418 | 124 | 110 | 734 | 150 | 90.7 | 104 |
| 32 | vismodegib | 93.8 | 34.2 | 41.2 | 556 | 112 | 75.9 | 789 | 76.9 | 110 | 57.9 |
| 33 | ZM336372 | - | 224 | 102 | 1020 | 81.9 | 59.9 | 3230 | 85.5 | 98.0 | 100 |
| 34 | vincristine | 108 | 85.3 | 538 | 554 | 111 | 92.1 | 1120 | 52.8 | 139 | 360 |
| 35 | PD173074 | 25.6 | 78.3 | 47.6 | 500 | 128 | 55.7 | - | 106 | 236 | 133 |
| 36 | PF-562271 | 142 | 231 | 193 | 898 | 146 | 97.1 | 1410 | 301 | 75.8 | 232 |

Repeated from the top, 2 entries:

Second drug,A375,C32,WM1716,COLO 829,WM3619,MeWo,MZ2-MEL,SK-MEL-5,RPMI-7951,WM115
vatalanib,50.4,286,104,405,134,180,2480,257,166,131
ENMD-2076,169,438,88.6,446,151,127,1630,373,153,243